Measurements: PMC12806248

Chains of the proteins cited; added tags and fusions are not shown.
UniProt Q8BGZ3: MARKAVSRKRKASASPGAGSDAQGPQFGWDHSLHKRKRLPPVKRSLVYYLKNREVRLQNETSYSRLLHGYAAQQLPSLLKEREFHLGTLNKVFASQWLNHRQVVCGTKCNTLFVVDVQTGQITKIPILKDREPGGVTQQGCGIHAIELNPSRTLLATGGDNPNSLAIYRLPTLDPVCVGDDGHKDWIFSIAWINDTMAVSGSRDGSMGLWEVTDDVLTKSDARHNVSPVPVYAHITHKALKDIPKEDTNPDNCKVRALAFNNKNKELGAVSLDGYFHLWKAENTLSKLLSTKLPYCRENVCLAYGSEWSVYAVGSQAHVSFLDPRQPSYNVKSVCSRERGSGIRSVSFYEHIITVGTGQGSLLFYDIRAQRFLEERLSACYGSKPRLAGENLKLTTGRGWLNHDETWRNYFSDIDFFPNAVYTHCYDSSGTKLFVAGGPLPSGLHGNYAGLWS
UniProt P11983: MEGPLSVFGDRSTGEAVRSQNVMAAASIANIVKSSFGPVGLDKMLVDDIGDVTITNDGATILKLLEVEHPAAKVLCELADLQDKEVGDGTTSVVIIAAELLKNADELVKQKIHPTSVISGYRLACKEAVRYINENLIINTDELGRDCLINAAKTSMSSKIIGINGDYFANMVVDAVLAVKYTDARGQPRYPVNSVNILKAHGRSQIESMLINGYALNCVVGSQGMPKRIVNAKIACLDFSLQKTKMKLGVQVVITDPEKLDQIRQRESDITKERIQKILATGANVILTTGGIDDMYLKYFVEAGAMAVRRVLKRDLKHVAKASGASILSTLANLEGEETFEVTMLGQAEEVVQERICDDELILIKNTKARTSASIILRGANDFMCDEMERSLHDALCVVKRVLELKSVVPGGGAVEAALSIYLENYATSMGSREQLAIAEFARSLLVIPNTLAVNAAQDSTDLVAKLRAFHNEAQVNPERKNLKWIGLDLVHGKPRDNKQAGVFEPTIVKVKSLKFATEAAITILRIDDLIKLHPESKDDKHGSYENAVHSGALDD

B1: TRiC/CCT subunit CCT8, mouse, endogenous (protein, UniProt P42932 1-548)
chain: MALHVPKAPGFAQMLKDGAKHFSGLEEAVYRNIQACKELAQTTRTAYGPNGMNKMVINRLEKLFVTNDAATILRELEVQHPAAKMIVMASHMQEQEVGDGTNFVLVFAGALLELAEELLRIGLSVSEVISGYEIACKKAHEILPELVCCSAKNLRDVDEVSSLLRTSIMSKQYGSETFLAKLIAQACVSIFPDSGNFNVDNIRVCKILGSGIYSSSVLHGMVFKKETEGDVTSVKDAKIAVYSCPFDGMITETKGTVLIKTAEELMNFSKGEENLMDAQVKAIAGTGANVIVTGGKVADIALHYANKYNIMLVRLNSKWDLRRLCKTVGATALPKLTPPVQEEMGHCDSVYLSEVGDTQVVVFKHEKEDGAISTIVLRGSTDNLMDDIERAVDDGVNTFKVLTRDKRLVPGGGATEIELAKQITSYGETCPGLEQYAIKKFAEAFEAIPRALAENSGVKANEVISKLYSVHQEGNKNVGLDIEAEVPAVKDMLEASILDTYLGKYWAIKLATNAAVTVLRVDQIIMAKPAGGPKPPSGKKDWDDDQND
B2: TRiC/CCT subunit CCT2, mouse, endogenous (protein, UniProt P80314 1-535)
chain: MASLSLAPVNIFKAGADEERAETARLSSFIGAIAIGDLVKSTLGPKGMDKILLSSGRDAALMVTNDGATILKNIGVDNPAAKVLVDMSRVQDDEVGDGTTSVTVLAAELLREAESLIAKKIHPQTIISGWREATKAAREALLSSAVDHGSDEARFWQDLMNIAGTTLSSKLLTHHKDHFTKLAVEAVLRLKGSGNLEAIHVIKKLGGSLADSYLDEGFLLDKKIGVNQPKRIENAKILIANTGMDTDKIKIFGSRVRVDSTAKVAEIEHAEKEKMKEKVERILKHGINCFINRQLIYNYPEQLFGAAGVMAIEHADFAGVERLALVTGGEIASTFDHPELVKLGSCKLIEEVMIGEDKLIHFSGVALGEACTIVLRGATQQILDEAERSLHDALCVLAQTVKDPRTVYGGGCSEMLMAHAVTQLANRTPGKEAVAMESFAKALRMLPTIIADNAGYDSADLVAQLRAAHSEGHITAGLDMKEGTIGDMAVLGITESFQVKRQVLLSAAEAAEVILRVDNIIKAAPRKRVPDHHPC
B3: TRiC/CCT subunit CCT3, mouse, endogenous (protein, UniProt P80318 1-545)
chain: MMGHRPVLVLSQNTKRESGRKVQSGNINAAKTIADIIRTCLGPKSMMKMLLDPMGGIVMTNDGNAILREIQVQHPAAKSMIEISRTQDEEVGDGTTSVIILAGEMLSVAEHFLEQQMHPTVVISAYRMALDDMISTLKKISTPVDVNNREMMLSIINSSITTKVISRWSSLACNIALDAVKTVQFEENGRKEIDIKKYARVEKIPGGIIEDSCVLRGVMINKDVTHPRMRRYIKNPRIVLLDSSLEYKKGESQTDIEITREEDFTRILQMEEEYIHQLCEDIIQLKPDVVITEKGISDLAQHYLMRANVTAIRRVRKTDNNRIARACGARIVSRPEELREDDVGTGAGLLEIKKIGDEYFTFITDCKDPKACTILLRGASKEILSEVERNLQDAMQVCRNVLLDPQLVPGGGASEMAVAHALTEKSKAMTGVEQWPYRAVAQALEVIPRTLIQNCGASTIRLLTSLRAKHTQESCETWGVNGETGTLVDMKELGIWEPLAVKLQTYKTAVETAVLLLRIDDIVSGHKKKGDDQNRQTGAPDAGQE
B4: TRiC/CCT subunit CCT4, mouse, endogenous (protein, UniProt P80315 1-539)
chain: MPENVASRSGAPTAGPGSRGKSAYQDRDKPAQIRFSNISAAKAVADAIRTSLGPKGMDKMIQDGKGDVTITNDGATILKQMQVLHPAARMLVELSKAQDIEAGDGTTSVVIIAGSLLDSCTKLLQKGIHPTIISESFQKALEKGLEILTDMSRPVQLSDRETLLNSATTSLNSKVVSQYSSLLSPMSVNAVMKVIDPATATSVDLRDIKIVKKLGGTIDDCELVEGLVLTQKVANSGITRVEKAKIGLIQFCLSAPKTDMDNQIVVSDYAQMDRVLREERAYILNLVKQIKKTGCNVLLIQKSILRDALSDLALHFLNKMKIMVVKDVEREDIEFICKTIGTKPVAHIDQFTADMLGSAELAEEVSLNGSGKLFKITGCTSPGKTVTIVVRGSNKLVIEEAERSIHDALCVIRCLVKKRALIAGGGAPEIELALRLTEYSRTLSGMESYCVRAFADAMEVIPSTLAENAGLNPISTVTELRNRHAQGEKTTGINVRKGGISNILEEMVVQPLLVSVSALTLATETVRSILKIDDVVNTR
B5: TRiC/CCT subunit CCT7, mouse, endogenous (protein, UniProt P80313 1-544)
chain: MMPTPVILLKEGTDSSQGIPQLVSNISACQVIAEAVRTTLGPRGMDKLIVDGRGKATISNDGATILKLLDVVHPAAKTLVDIAKSQDAEVGDGTTSVTLLAAEFLKQVKPYVEEGLHPQIIIRAFRTATQLAVNKIKEIAVTVKKQDKVEQRKMLEKCAMTALSSKLISQQKVFFAKMVVDAVMMLDELLQLKMIGIKKVQGGALEESQLVAGVAFKKTFSYAGFEMQPKKYKNPKIALLNVELELKAEKDNAEIRVHTVEDYQAIVDAEWNILYDKLEKIHQSGAKVILSKLPIGDVATQYFADRDMFCAGRVPEEDLKRTMMACGGSIQTSVNALVPDVLGHCQVFEETQIGGERYNFFTGCPKAKTCTIILRGGAEQFMEETERSLHDAIMIVRRAIKNDSVVAGGGAIEMELSKYLRDYSRTIPGKQQLLIGAYAKALEIIPRQLCDNAGFDATNILNKLRARHAQGGMWYGVDINNENIADNFQAFVWEPAMVRINALTAASEAACLIVSVDETIKNPRSTVDPPAPSAGRGRGQARFH

Target: FLAG-tagged Dcaf12 (mouse) (mouse) (UniProt Q8BGZ3)
Experiment: affinity purification with mass spectrometry; 889DTC cells stably expressing FLAG-tagged Dcaf12, 2 mM DSP crosslinking, NP-40 buffer lysis, anti-FLAG M2 affinity beads, LC-MS/MS

binding, binds:
TRiC/CCT subunit CCT1 (Tcp1), mouse, endogenous (from UniProt P11983 1-556)
B1
B2
B3
B4
B5

Results are given in words; binding and its absence hold for the method and conditions named. Binding seen in cells or lysates may run through a third protein. These calls come from enrichment with a bait or labelling near it, and not all partners need be listed.
